The results in this text go back to the supplement of paper PMC4635364.

The subject of test [1] is ReNCell VM. The test can be described thus: neuronal differentiation score (DCX+ cell fraction vs untreated, manual image score) (score (-3 to 3)); higher = more neuronal differentiation. Conditions: 2 uM, 2 weeks.
For test [2], the system named is ReNCell VM. The test can be described thus: dopaminergic neuron differentiation score (TH+ cell fraction vs untreated, manual image score) (score (0 to 3)); higher = more TH+ dopaminergic neuron differentiation. Conditions: 2 uM, 4 weeks, BDNF 10 ng/ml + GDNF 10 ng/ml.

Structures are written as SMILES. Where a name gives a salt, the structure may show the parent alone. This is one part of the list. Single values are uncertain here, since repeats match poorly.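 Cells: ReNCell VM human fetal ventral-midbrain neural progenitors, differentiated mitogen-free. Blinded raters compared doublecortin-stained (early neurons) or tyrosine hydroxylase-stained (dopaminergic neurons) images with untreated wells, where 0 means no change. After repeats and both raters were averaged, compounds scoring 2 or above became hits for retesting.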

On to `COC(=O)CC[C@@H](C)[C@H]1CC[C@H]2[C@@H]3CC[C@@H]4C[C@H](O)CC[C@]4(C)[C@H]3C[C@H](O)[C@]12C`, for which the neuronal differentiation score in test [1] (library: Spectrum) was inactive: 0. Further, in test [2] (library: Spectrum), the “dopaminergic neuron differentiation score” value was inactive: 0.

On to `Cc1ncc([N+](=O)[O-])n1CC(C)O` (centres undefined), for which, in test [1] (library: Spectrum), the neuronal differentiation score is inactive: 0. For the same molecule, in test [2] (library: Spectrum), the “dopaminergic neuron differentiation score” value was inactive: 0.

Consider `COc1c2c(cc3occ(-c4ccc5c(c4)OCO5)c(=O)c13)OC(C)(C)C=C2`, for which the neuronal differentiation score in test [1] (library: Spectrum) was inactive: 0. For the same molecule, in test [2] (library: Spectrum), the “dopaminergic neuron differentiation score” value is inactive: 0.

For the molecule `COc1ccc2c(=O)c(CC(=O)O)coc2c1`, the neuronal differentiation score in test [1] (library: Spectrum) was inactive: 0. In addition, the “dopaminergic neuron differentiation score” value in test [2] (library: Spectrum) is inactive: 1.

As to `O=C(N[C@@H](Cc1ccccc1)C(=O)CCl)OCc1ccccc1` [Z-L-Phe chloromethyl ketone], the neuronal differentiation score in test [1] (library: LOPAC) was inactive: 0. In addition, in test [2] (library: LOPAC), the “dopaminergic neuron differentiation score” value is inactive: 0.

Take `Cc1ccccc1C(OCCN(C)C)c1ccccc1` (centres undefined): the neuronal differentiation score in test [1] (library: Spectrum) is inactive: 0. For the same molecule, the “dopaminergic neuron differentiation score” value in test [2] (library: Spectrum) was inactive: 0.

For the molecule `CCOC(=O)C1=C(C)NC(C)=C(C(=O)OCC)C1c1ccccc1/C=C/C(=O)OC(C)(C)C` [Lacidipine], the neuronal differentiation score in test [1] (library: Prestwick) is inactive: 0. For the same molecule, the “dopaminergic neuron differentiation score” value in test [2] (library: Prestwick) was inactive: 1.

For the molecule `CCCn1c(=O)c2[nH]c(-c3ccc(S(=O)(=O)O)cc3)nc2n(CCC)c1=O` [1,3-Dipropyl-8-p-sulfophenylxanthine], the neuronal differentiation score in test [1] (library: LOPAC) was inactive: 0. Besides, in test [2] (library: LOPAC), the “dopaminergic neuron differentiation score” value is inactive: 0.

On to `COc1c(C2=CC(=O)N(C)C2=O)c2c(n1C)C(=O)c1ccccc1C2=O`, for which the neuronal differentiation score in test [1] (library: Natural) was inactive: 0. In test [2] (library: Natural), the “dopaminergic neuron differentiation score” value is inactive: 0.

Turning to `CN[C@@H]1[C@H](O[C@H]2[C@H](O[C@H]3[C@H](O)[C@@H](O)[C@H](N=C(N)N)[C@@H](O)[C@@H]3N=C(N)N)O[C@@H](C)[C@]2(O)C=O)O[C@@H](CO)[C@H](O)[C@H]1O` [Streptomycin sulfate], in test [1] (library: Prestwick), the neuronal differentiation score was inactive: 0. Besides, in test [2] (library: Prestwick), the “dopaminergic neuron differentiation score” value was inactive: 0.

For `O=C(O)c1cc2cc(Cl)ccc2[nH]1`, the neuronal differentiation score in test [1] (library: Spectrum) was inactive: 0. Moreover, the “dopaminergic neuron differentiation score” value in test [2] (library: Spectrum) was inactive: 0.

For `CCCc1nc(C)c2c(=O)nc(-c3cc(S(=O)(=O)N4CCN(CC)CC4)ccc3OCC)[nH]n12` [Vardenafil], the neuronal differentiation score in test [1] (library: Prestwick) was inactive: 0. Moreover, the “dopaminergic neuron differentiation score” value in test [2] (library: Prestwick) was inactive: 0.

Consider `O=C(O[C@@H]1C[C@@H]2C[C@H]3C[C@H](C1)N2CC3=O)c1c[nH]c2ccccc12` [Dolasetron mesilate], for which, in test [1] (library: Prestwick), the neuronal differentiation score was inactive: 0. Besides, the “dopaminergic neuron differentiation score” value in test [2] (library: Prestwick) was inactive: 0.

For `CCCC(=O)Nc1ncnc2c1ncn2[C@@H]1O[C@@H]2COP(=O)(O)O[C@H]2[C@H]1OC(=O)CCC` [Dibutyryl-cAMP, sodium salt], in test [1] (library: Tocriscreen), the neuronal differentiation score was inactive: -1. In addition, the “dopaminergic neuron differentiation score” value in test [2] (library: Tocriscreen) is inactive: 0.

`CNC(=N)NCCC[C@H](N)C(=O)O` [NG-Monomethyl-L-arginine acetate]: the neuronal differentiation score in test [1] (library: LOPAC) is inactive: 0. Moreover, the “dopaminergic neuron differentiation score” value in test [2] (library: LOPAC) is inactive: 0.

With `C[C@@H]1O[C@@H](OC[C@H]2O[C@@H](Oc3c(-c4ccc(O)c(O)c4)oc4cc(O)cc(O)c4c3=O)[C@H](O)[C@@H](O)[C@@H]2O)[C@H](O)[C@H](O)[C@H]1O` [Rutin], the neuronal differentiation score in test [1] (library: Phytochemical) was inactive: 0. For the same molecule, the “dopaminergic neuron differentiation score” value in test [2] (library: Phytochemical) is inactive: 0.

Take `CC[N+](CC)(CC)CC` [Tetraethylammonium chloride]: in test [1] (library: LOPAC), the neuronal differentiation score was inactive: 0. In addition, in test [2] (library: LOPAC), the “dopaminergic neuron differentiation score” value is inactive: 0.

With `O=c1nc2ccccc2c2n1CC(CN1CCN(c3ccccc3)CC1)N2` (centres undefined), the neuronal differentiation score in test [1] (library: Tocriscreen) is inactive: 0. Besides, the “dopaminergic neuron differentiation score” value in test [2] (library: Tocriscreen) was inactive: 0.

With `COc1ccc(CCN(C)CCCC(C#N)(c2ccc(OC)c(OC)c2)C(C)C)cc1OC` (centres undefined) [Verapamil hydrochloride], in test [1] (library: Prestwick), the neuronal differentiation score is inactive: 0. For the same molecule, the “dopaminergic neuron differentiation score” value in test [2] (library: Prestwick) was inactive: 0.

As for `Cc1cccc(C)c1OCC(C)N` (centres undefined), in test [1] (library: Spectrum), the neuronal differentiation score is inactive: 0. In addition, the “dopaminergic neuron differentiation score” value in test [2] (library: Spectrum) is inactive: 0.

`CN(CC[C@@H](Oc1ccc(-c2ccccc2)cc1)c1ccc(F)cc1)CC(=O)O` [ALX 5407 hydrochloride]: the neuronal differentiation score in test [1] (library: Tocriscreen) is inactive: 0. Also, in test [2] (library: Tocriscreen), the “dopaminergic neuron differentiation score” value is inactive: 0.

On to `C[C@H]1O[C@@H](O[C@H]2[C@@H](O)C[C@H](O[C@H]3[C@@H](O)C[C@H](O[C@H]4CC[C@@]5(C)[C@H](CC[C@@H]6[C@@H]5CC[C@]5(C)[C@@H](C7=CC(=O)OC7)CC[C@]65O)C4)O[C@@H]3C)O[C@@H]2C)C[C@H](O)[C@@H]1O`, for which the neuronal differentiation score in test [1] (library: Spectrum) is inactive: 0. Also, the “dopaminergic neuron differentiation score” value in test [2] (library: Spectrum) is inactive: 0.

Consider `CS(=O)(=O)c1ccc(Cn2c3c(c4cc(F)cc(F)c42)CCCC3CC(=O)O)cc1` (centres undefined), for which the neuronal differentiation score in test [1] (library: Tocriscreen) is inactive: 0. Further, in test [2] (library: Tocriscreen), the “dopaminergic neuron differentiation score” value is inactive: 0.

Regarding `CC[N+](CC)(CC(=O)Nc1c(C)cccc1C)Cc1ccccc1`, the neuronal differentiation score in test [1] (library: Spectrum) is inactive: 0. Besides, the “dopaminergic neuron differentiation score” value in test [2] (library: Spectrum) is inactive: 0.

Consider `O=C(O)/C(=C\c1c(C(=O)O)[nH]c2cc(Cl)cc(Cl)c12)c1ccccc1`, for which, in test [1] (library: LOPAC), the neuronal differentiation score was inactive: 0. Moreover, in test [2] (library: LOPAC), the “dopaminergic neuron differentiation score” value is inactive: 0.

On to `C[C@@H](c1ncncc1F)[C@](O)(Cn1cncn1)c1ccc(F)cc1F`, for which the neuronal differentiation score in test [1] (library: Spectrum) is inactive: 0. Also, the “dopaminergic neuron differentiation score” value in test [2] (library: Spectrum) was inactive: 1.

`COc1c(O)cc2oc(Oc3ccc(O)cc3)cc(=O)c2c1O` [capillarisin]: the neuronal differentiation score in test [1] (library: Natural) is inactive: 0. The “dopaminergic neuron differentiation score” value in test [2] (library: Natural) was inactive: 0.

In the case of `CCn1cc(C(=O)O)c(=O)c2ccc(C)nc21` [Nalidixic acid sodium], in test [1] (library: LOPAC), the neuronal differentiation score was inactive: 0. In test [2] (library: LOPAC), the “dopaminergic neuron differentiation score” value is inactive: 0.

For the molecule `CC(=O)c1ccc2c(c1)N(CCCN1CCC(CCO)CC1)c1ccccc1S2` [Piperacetazine], in test [1] (library: Prestwick), the neuronal differentiation score is inactive: 0. For the same molecule, in test [2] (library: Prestwick), the “dopaminergic neuron differentiation score” value was inactive: 0.

With `CNCCCCOc1ccccc1Cc1ccccc1` [Bifemelane hydrochloride], the neuronal differentiation score in test [1] (library: Tocriscreen) was inactive: 0. Moreover, the “dopaminergic neuron differentiation score” value in test [2] (library: Tocriscreen) is inactive: 0.

`O=C(/C=C/c1ccccc1)c1ccc(O)cc1O`: the neuronal differentiation score in test [1] (library: Spectrum) was inactive: 0. In addition, the “dopaminergic neuron differentiation score” value in test [2] (library: Spectrum) was inactive: 0.

For the molecule `NS(=O)(=O)c1cc(C(=O)O)cc(N2CCCC2)c1Oc1ccccc1` [Piretanide], the neuronal differentiation score in test [1] (library: Prestwick) was inactive: 0. For the same molecule, the “dopaminergic neuron differentiation score” value in test [2] (library: Prestwick) was inactive: 0.
